Reference: the supplement of paper PMC10849652
This is one part of the list.

By UniProt entry, the sequences of proteins in these tests, tags left out. Where a name states a change or a piece, a line headed by the entry shows the natural chain unless it says otherwise.
UniProt Q7L9L4: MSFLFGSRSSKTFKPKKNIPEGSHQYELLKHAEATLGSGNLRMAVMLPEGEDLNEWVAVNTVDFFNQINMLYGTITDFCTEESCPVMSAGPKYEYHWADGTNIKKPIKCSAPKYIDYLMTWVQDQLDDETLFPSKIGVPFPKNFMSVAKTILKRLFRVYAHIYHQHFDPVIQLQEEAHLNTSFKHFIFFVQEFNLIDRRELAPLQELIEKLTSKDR
UniProt P14174: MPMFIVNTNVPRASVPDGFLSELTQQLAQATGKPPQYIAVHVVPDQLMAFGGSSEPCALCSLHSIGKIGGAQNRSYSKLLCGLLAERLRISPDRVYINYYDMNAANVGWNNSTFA
UniProt Q6IN84: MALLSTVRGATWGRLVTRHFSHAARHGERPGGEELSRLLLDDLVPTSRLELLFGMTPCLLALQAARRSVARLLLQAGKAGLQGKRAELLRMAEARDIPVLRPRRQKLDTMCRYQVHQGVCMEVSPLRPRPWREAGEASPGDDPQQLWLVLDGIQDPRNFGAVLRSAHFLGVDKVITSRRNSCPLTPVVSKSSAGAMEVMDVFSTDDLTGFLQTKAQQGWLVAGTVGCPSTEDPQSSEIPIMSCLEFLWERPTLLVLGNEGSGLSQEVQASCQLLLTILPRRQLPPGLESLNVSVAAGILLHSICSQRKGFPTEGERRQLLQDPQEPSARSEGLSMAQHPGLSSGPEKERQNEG
UniProt Q70IA6: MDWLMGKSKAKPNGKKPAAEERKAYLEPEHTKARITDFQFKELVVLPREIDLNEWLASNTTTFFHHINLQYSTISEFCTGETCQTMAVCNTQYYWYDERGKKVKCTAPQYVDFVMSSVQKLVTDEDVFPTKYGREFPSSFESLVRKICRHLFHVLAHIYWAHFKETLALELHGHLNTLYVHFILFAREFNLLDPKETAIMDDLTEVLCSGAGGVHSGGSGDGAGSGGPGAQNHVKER
UniProt Q9NXC5: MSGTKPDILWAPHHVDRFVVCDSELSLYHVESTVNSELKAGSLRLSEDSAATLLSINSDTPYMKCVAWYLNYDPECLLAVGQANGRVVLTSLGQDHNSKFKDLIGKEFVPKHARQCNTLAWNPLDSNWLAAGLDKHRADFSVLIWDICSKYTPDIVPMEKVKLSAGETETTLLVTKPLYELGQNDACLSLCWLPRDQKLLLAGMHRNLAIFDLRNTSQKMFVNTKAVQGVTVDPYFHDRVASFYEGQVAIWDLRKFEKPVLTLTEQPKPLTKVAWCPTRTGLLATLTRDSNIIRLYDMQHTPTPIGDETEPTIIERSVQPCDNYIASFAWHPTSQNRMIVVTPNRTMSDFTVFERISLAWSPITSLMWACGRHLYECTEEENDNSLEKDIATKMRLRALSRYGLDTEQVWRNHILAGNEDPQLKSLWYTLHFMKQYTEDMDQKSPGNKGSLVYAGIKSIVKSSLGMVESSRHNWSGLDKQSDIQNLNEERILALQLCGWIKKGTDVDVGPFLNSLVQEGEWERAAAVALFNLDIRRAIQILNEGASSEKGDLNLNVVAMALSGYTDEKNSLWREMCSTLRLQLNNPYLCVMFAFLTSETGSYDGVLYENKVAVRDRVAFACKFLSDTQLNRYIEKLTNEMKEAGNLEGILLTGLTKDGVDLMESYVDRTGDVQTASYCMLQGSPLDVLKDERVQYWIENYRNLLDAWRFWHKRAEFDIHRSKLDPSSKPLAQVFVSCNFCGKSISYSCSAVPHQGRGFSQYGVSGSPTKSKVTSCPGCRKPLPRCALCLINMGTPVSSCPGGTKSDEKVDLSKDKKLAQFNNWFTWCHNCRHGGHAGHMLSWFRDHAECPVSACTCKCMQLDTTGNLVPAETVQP
UniProt Q5XKP0: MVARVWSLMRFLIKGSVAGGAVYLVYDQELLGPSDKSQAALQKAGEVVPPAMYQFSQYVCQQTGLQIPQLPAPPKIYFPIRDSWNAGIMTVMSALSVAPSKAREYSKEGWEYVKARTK
UniProt Q9Y605: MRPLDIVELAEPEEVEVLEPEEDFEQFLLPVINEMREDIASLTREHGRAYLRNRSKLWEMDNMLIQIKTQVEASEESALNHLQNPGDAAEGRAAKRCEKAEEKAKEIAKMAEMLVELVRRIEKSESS
UniProt O96007: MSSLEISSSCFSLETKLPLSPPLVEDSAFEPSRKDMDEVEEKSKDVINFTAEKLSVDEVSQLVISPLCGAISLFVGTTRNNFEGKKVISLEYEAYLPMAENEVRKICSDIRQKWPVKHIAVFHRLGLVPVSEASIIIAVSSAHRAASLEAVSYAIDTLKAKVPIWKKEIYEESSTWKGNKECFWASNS
UniProt Q96T76: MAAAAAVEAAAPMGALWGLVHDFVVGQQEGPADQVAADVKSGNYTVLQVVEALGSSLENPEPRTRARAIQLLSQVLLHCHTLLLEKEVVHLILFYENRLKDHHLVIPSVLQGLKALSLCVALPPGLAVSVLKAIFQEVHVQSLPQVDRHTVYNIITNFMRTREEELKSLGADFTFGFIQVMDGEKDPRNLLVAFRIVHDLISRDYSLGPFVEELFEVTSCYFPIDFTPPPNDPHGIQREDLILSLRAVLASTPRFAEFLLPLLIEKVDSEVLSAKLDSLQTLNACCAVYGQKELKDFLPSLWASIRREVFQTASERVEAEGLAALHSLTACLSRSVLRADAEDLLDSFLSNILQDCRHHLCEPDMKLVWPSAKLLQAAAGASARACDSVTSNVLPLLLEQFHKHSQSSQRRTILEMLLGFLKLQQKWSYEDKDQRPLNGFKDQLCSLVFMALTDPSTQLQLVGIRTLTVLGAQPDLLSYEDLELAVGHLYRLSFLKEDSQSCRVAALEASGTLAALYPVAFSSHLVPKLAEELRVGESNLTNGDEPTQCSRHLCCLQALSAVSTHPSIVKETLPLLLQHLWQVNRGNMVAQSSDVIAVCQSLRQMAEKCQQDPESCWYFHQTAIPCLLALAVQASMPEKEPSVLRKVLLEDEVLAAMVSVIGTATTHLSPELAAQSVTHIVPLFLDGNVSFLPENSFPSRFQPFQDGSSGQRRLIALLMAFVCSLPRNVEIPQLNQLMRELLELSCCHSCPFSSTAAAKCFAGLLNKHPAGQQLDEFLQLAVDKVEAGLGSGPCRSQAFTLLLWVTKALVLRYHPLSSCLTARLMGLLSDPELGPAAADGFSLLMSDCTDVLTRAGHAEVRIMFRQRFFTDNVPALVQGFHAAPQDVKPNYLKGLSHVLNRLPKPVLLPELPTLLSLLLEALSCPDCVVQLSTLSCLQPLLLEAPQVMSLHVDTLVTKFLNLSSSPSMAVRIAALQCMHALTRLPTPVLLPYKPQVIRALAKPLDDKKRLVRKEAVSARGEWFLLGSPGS
UniProt Q9BU76: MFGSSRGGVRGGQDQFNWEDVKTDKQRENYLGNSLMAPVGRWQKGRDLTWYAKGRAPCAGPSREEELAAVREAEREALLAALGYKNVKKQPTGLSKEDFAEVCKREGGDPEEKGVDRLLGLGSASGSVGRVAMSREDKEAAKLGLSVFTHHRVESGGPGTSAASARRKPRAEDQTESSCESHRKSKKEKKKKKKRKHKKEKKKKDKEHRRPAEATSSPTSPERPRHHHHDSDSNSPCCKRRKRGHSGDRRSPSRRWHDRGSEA
UniProt Q10469: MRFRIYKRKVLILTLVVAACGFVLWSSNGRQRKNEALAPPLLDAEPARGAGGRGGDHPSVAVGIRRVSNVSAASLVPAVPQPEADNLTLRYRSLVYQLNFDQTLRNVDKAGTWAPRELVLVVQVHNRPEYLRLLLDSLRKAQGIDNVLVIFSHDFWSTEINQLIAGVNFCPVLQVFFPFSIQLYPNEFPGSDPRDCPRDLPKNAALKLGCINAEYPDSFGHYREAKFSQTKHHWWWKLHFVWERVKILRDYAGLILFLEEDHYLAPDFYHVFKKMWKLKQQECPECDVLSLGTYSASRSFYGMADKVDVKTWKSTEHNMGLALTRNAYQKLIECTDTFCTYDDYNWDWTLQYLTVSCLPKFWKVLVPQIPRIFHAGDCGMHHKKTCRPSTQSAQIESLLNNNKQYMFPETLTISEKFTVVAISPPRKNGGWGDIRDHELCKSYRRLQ
UniProt Q13015: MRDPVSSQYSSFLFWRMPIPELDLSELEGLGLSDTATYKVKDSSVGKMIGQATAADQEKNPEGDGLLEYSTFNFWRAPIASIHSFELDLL
UniProt Q9BRT3: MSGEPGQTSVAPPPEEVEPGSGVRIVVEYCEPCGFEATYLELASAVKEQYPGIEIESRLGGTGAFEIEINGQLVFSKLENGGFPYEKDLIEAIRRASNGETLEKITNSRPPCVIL
UniProt Q9BWT6: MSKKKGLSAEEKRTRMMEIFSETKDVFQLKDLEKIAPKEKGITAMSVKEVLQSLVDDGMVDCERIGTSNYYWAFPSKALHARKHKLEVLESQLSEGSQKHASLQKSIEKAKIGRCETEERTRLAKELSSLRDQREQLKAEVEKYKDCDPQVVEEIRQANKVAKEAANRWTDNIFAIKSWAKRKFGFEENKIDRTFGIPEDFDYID

How the values were obtained:
Assay in all cases: log2 fold change, soluble protein after heating vs DMSO (PISA); higher = thermal stabilisation; K562 lysate, 10 uM; active = over 0.2 and 3.5 SD of the protein, either way, in both replicates (recomputed)
ibrutinib = compound: C=CC(=O)N1CCC[C@@H](n2nc(-c3ccc(Oc4ccccc4)cc3)c3c(N)ncnc32)C1 [ibrutinib]
Procedure, shortened: (§1)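 K562 pellets were dounce-homogenised in PBS pH 7.4 with 1 mM MgCl2, and the crude extract at 1 mg/mL protein was treated with 10 μM compound for 30 min. Aliquots were heated for 3 min across 48°C-58°C, pooled, and brought to 0.5% NP-40 at 4°C; soluble protein was the supernatant after 21,000xg for 90 min. Soluble protein was quantified by TMTpro 16plex LC-MS/MS with channel sums equalised, and reported as log2 fold change in thermal stability against DMSO controls, with values from duplicates.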

[1] = compound: CC(=O)c1cnc2ccc(-c3cc(Cl)c(O)c(Cl)c3)nc2c1N[C@H]1CC[C@H](CN(C)C)CC1
Procedure, shortened: as §1

ralimetinib = compound: CC(C)(C)Cn1c(N)nc2ccc(-c3[nH]c(C(C)(C)C)nc3-c3ccc(F)cc3)nc21 [ralimetinib]
Procedure, shortened: as §1

[2] = compound: CC(C)(O)CC(=O)NCCn1ccc2ncnc(Nc3ccc(Oc4cccc(C(F)(F)F)c4)c(Cl)c3)c21
Procedure, shortened: as §1

[3] = compound: CC(C)C1=C2N=C(C=C(N2N=C1)NCC3=CC=CC=C3)NCCCCCCN
Procedure, shortened: as §1

[4] = compound: CC1=C(C(CC(=O)N1)C2=CC=C(C=C2)C(F)(F)F)C(=O)NC3=C(C=C4C(=C3)C=NN4)F
Procedure, shortened: as §1

[5] = compound: CC1=C(C2=C(C=C1)C(=O)C3=CC=CC=C3N2CCCN)C
Procedure, shortened: as §1

[6] = compound: CC1=C(C=C(C=C1)NC(=O)C2=CC(=CC=C2)C(C)(C)C#N)NC3=CC4=C(C=C3)N=CN(C4=O)C
Procedure, shortened: as §1

[7] = compound: CC1=C(C=C(C=C1)NC(=O)C2=CC(=CC=C2)N(C)C)NC(=O)C3=CC=C(C=C3)O
Procedure, shortened: as §1

[8] = compound: CC1=CC=C(C=C1)SC2=C3C=C(SC3=CN=C2)C(=O)N
Procedure, shortened: as §1

vemurafenib = compound: CCCS(=O)(=O)Nc1ccc(F)c(C(=O)c2c[nH]c3ncc(-c4ccc(Cl)cc4)cc23)c1F [vemurafenib]
Procedure, shortened: as §1

[9] = compound: CCCS(=O)(=O)Nc1ccc(F)c(C(=O)c2c[nH]c3ncc(Cl)cc23)c1F
Procedure, shortened: as §1

barasertib = compound: CCN(CCCOc1ccc2c(Nc3cc(CC(=O)Nc4cccc(F)c4)[nH]n3)ncnc2c1)CCOP(=O)(O)O [barasertib]
Procedure, shortened: as §1

[10] = compound: CC[C@@H]1C(=O)N(C)c2cnc(Nc3ccc(C(=O)NC4CCN(C)CC4)cc3OC)nc2N1C1CCCC1
Procedure, shortened: as §1

volasertib = compound: CC[C@@H]1C(=O)N(C)c2cnc(Nc3ccc(C(=O)N[C@H]4CC[C@H](N5CCN(CC6CC6)CC5)CC4)cc3OC)nc2N1C(C)C [volasertib]
Procedure, shortened: as §1

[11] = compound: CCn1c(C(=O)N(C2CC2)C2CC2)cc2c3c(ncn3C)c(Nc3cc(C)n(C)n3)nc21
Procedure, shortened: as §1

[12] = compound: CCn1cc(-c2ccnc3[nH]c(-c4cccc(CN(C)C)c4)cc23)c(-c2ccc(NC(=O)N(C)C)cc2)n1
Procedure, shortened: as §1

[13] = compound: CN1CCC(CNc2ccc3ncc(-c4cccc(OC(F)(F)F)c4)n3n2)CC1
Procedure, shortened: as §1

saracatinib = compound: CN1CCN(CCOc2cc(OC3CCOCC3)c3c(Nc4c(Cl)ccc5c4OCO5)ncnc3c2)CC1 [saracatinib]
Procedure, shortened: as §1

sotrastaurin = compound: CN1CCN(c2nc(C3=C(c4c[nH]c5ccccc45)C(=O)NC3=O)c3ccccc3n2)CC1 [sotrastaurin]
Procedure, shortened: as §1

Measured: log2 fold change

MOB1B isoform 2 (UniProt Q7L9L4)
inactive: ibrutinib 0.001 | [1] -0.011 | ralimetinib 0.025 | [2] -0.059 | [3] 0.004 | [4] 0.01 | [5] 0.023 | [6] 0.015 | [7] -0.007 | [8] -0.021 | vemurafenib 0.018 | [9] -0.029 | barasertib -0.014 | [10] 0.048 | volasertib 0.023 | [11] 0.001 | [12] -0.075 | [13] 0.03 | saracatinib 0.007 | sotrastaurin 0.031

MIF (UniProt P14174)
inactive: ibrutinib 0.101 | [1] -0.057 | ralimetinib -0.002 | [2] 0.01 | [3] 0.003 | [4] -0.095 | [5] 0.009 | [6] -0.004 | [7] -0.019 | [8] 0.049 | vemurafenib 0.025 | [9] -0.047 | barasertib -0.02 | [10] 0 | volasertib -0.025 | [11] 0.021 | [12] -0.274 | [13] 0.084 | saracatinib 0.002 | sotrastaurin 0.002

MRM1 (UniProt Q6IN84)
inactive: ibrutinib 0 | [1] -0.085 | ralimetinib 0.023 | [2] -0.085 | [3] 0.017 | [4] 0.013 | [5] -0.018 | [6] 0.022 | [7] -0.024 | [8] -0.041 | vemurafenib 0.038 | [9] 0.029 | barasertib -0.018 | [10] -0.045 | volasertib 0.007 | [11] -0.092 | [12] -0.034 | [13] 0.002 | saracatinib -0.005 | sotrastaurin -0.004

Random excerpt: two records from the list.
MIF (UniProt P14174)
inactive: ibrutinib 0.101 | [1] -0.057 | ralimetinib -0.002 | [2] 0.01 | [3] 0.003 | [4] -0.095 | [5] 0.009 | [6] -0.004 | [7] -0.019 | [8] 0.049 | vemurafenib 0.025 | [9] -0.047 | barasertib -0.02 | [10] 0 | volasertib -0.025 | [11] 0.021 | [12] -0.274 | [13] 0.084 | saracatinib 0.002 | sotrastaurin 0.002

MRM1 (UniProt Q6IN84)
inactive: ibrutinib 0 | [1] -0.085 | ralimetinib 0.023 | [2] -0.085 | [3] 0.017 | [4] 0.013 | [5] -0.018 | [6] 0.022 | [7] -0.024 | [8] -0.041 | vemurafenib 0.038 | [9] 0.029 | barasertib -0.018 | [10] -0.045 | volasertib 0.007 | [11] -0.092 | [12] -0.034 | [13] 0.002 | saracatinib -0.005 | sotrastaurin -0.004

Later entries.

MOB2 isoform 3 (UniProt Q70IA6)
inactive: ibrutinib -0.034 | [1] -0.098 | ralimetinib 0.011 | [2] -0.02 | [3] -0.007 | [4] 0.013 | [5] 0.054 | [6] 0.018 | [7] -0.009 | [8] -0.02 | vemurafenib 0.047 | [9] -0.004 | barasertib 0.123 | [10] 0.04 | volasertib -0.05 | [11] -0.013 | [12] 0.074 | [13] -0.062 | saracatinib 0.08 | sotrastaurin 0.066

MIOS (UniProt Q9NXC5)
inactive: ibrutinib 0.029 | [1] 0.029 | ralimetinib 0.029 | [2] 0.007 | [3] 0.006 | [4] -0.009 | [5] 0.011 | [6] 0.022 | [7] 0.009 | [8] -0.022 | vemurafenib 0.039 | [9] -0.002 | barasertib 0.013 | [10] -0.037 | volasertib -0.017 | [11] 0.008 | [12] -0.015 | [13] 0.036 | saracatinib 0.001 | sotrastaurin -0.002

MICOS13 (UniProt Q5XKP0)
inactive: ibrutinib -0.083 | [1] -0.002 | ralimetinib 0.091 | [2] -0.139 | [3] -0.1 | [4] 0.047 | [5] -0.001 | [6] 0.055 | [7] 0.136 | [8] 0.019 | vemurafenib 0.073 | [9] -0.005 | barasertib 0.032 | [10] 0.009 | volasertib 0.018 | [11] 0.021 | [12] -0.002 | [13] -0.086 | saracatinib -0.028 | sotrastaurin -0.085

MRFAP1 (UniProt Q9Y605)
inactive: ibrutinib -0.061 | [1] 0.07 | ralimetinib -0.007 | [2] 0.036 | [3] -0.009 | [4] -0.047 | [5] 0.005 | [6] 0.039 | [7] 0.053 | [8] -0.042 | vemurafenib -0.132 | [9] 0.001 | barasertib -0.009 | [10] -0.012 | volasertib 0.051 | [11] -0.004 | [12] -0.066 | [13] 0.003 | saracatinib 0.023 | sotrastaurin 0.02

MICB, A0A140T979
inactive: ibrutinib 0.074 | [1] 0.317 | ralimetinib -0.037 | [2] -0.101 | [3] -0.07 | [4] -0.11 | [5] -0.002 | [6] 0.016 | [7] 0.004 | [8] -0.068 | vemurafenib -0.054 | [9] 0.098 | barasertib 0.039 | [10] 0.223 | volasertib -0.072 | [11] -0.084 | [12] -0.05 | [13] 0.066 | saracatinib 0.019 | sotrastaurin 0.096

MOCS2 (UniProt O96007)
inactive: ibrutinib 0.009 | [1] -0.031 | ralimetinib -0.043 | [2] -0.016 | [3] -0.038 | [4] 0.014 | [5] -0.006 | [6] 0.003 | [7] 0.004 | [8] -0.015 | vemurafenib -0.02 | [9] 0.021 | barasertib 0.014 | [10] 0.06 | volasertib 0.028 | [11] -0.045 | [12] 0.093 | [13] -0.008 | saracatinib 0.012 | sotrastaurin -0.058

MMS19 isoform 8 (UniProt Q96T76)
inactive: ibrutinib -0.023 | [1] -0.011 | ralimetinib 0.022 | [2] -0.02 | [3] -0.041 | [4] 0.006 | [5] -0.018 | [6] 0.013 | [7] 0.055 | [8] 0.004 | vemurafenib 0.064 | [9] 0.006 | barasertib 0.029 | [10] -0.061 | volasertib -0.114 | [11] 0.002 | [12] -0.005 | [13] -0.051 | saracatinib 0 | sotrastaurin 0.026

MMTAG2 (UniProt Q9BU76)
inactive: ibrutinib 0.097 | [1] 0.01 | ralimetinib 0.001 | [2] -0.009 | [3] -0.055 | [4] -0.06 | [5] -0.069 | [6] 0.054 | [7] 0.038 | [8] 0.042 | vemurafenib 0.028 | [9] -0.004 | barasertib 0.019 | [10] 0.061 | volasertib -0.011 | [11] -0.02 | [12] 0.044 | [13] 0.011 | saracatinib -0.026 | sotrastaurin -0.041

MGAT2 (UniProt Q10469)
inactive: ibrutinib -0.023 | [1] 0.031 | ralimetinib 0.025 | [2] -0.022 | [3] -0.013 | [4] 0.033 | [5] -0.021 | [6] -0.013 | [7] -0.017 | [8] 0.005 | vemurafenib -0.09 | [9] -0.024 | barasertib 0.057 | [10] -0.124 | volasertib -0.003 | [11] 0.01 | [12] -0.055 | [13] 0.05 | saracatinib 0.017 | sotrastaurin -0.014

MLLT11 (UniProt Q13015)
inactive: ibrutinib -0.057 | [1] 0.077 | ralimetinib 0.032 | [2] -0.116 | [3] 0.164 | [4] 0.174 | [5] -0.037 | [6] 0.326 | [7] -0.008 | [8] 0.055 | vemurafenib -0.054 | [9] -0.048 | barasertib 0.143 | [10] -0.199 | volasertib 0.1 | [11] 0.05 | [12] -0.01 | [13] -0.049 | saracatinib 0.118 | sotrastaurin -0.04

MRPL13 (UniProt Q9BYD1)
inactive: ibrutinib -0.027 | [1] -0.033 | ralimetinib 0.012 | [2] -0.003 | [3] -0.023 | [4] -0.003 | [5] -0.024 | [6] -0.036 | [7] 0.009 | [8] 0.029 | vemurafenib 0.014 | [9] -0.04 | barasertib -0.038 | [10] -0.017 | volasertib -0.025 | [11] 0.028 | [12] -0.072 | [13] 0.025 | saracatinib 0.011 | sotrastaurin -0.011

MIEN1 (UniProt Q9BRT3)
inactive: ibrutinib 0.053 | [1] -0.068 | ralimetinib 0.025 | [2] -0.05 | [3] -0.012 | [4] -0.038 | [5] -0.003 | [6] -0.052 | [7] 0.009 | [8] 0.063 | vemurafenib 0.004 | [9] -0.006 | barasertib 0.211 | [10] -0.018 | volasertib 0.03 | [11] 0.042 | [12] -0.03 | [13] -0.138 | saracatinib 0.004 | sotrastaurin -0.049

MND1 (UniProt Q9BWT6)
inactive: ibrutinib 0.024 | [1] -0.005 | ralimetinib 0.005 | [2] -0.006 | [3] 0 | [4] 0 | [5] 0.01 | [6] -0.022 | [7] 0.002 | [8] -0.006 | vemurafenib -0.023 | [9] 0.016 | barasertib -0.02 | [10] -0.018 | volasertib 0.026 | [11] -0.013 | [12] 0.131 | [13] -0.13 | saracatinib 0.002 | sotrastaurin 0.024
